Laboratory results published in the supplement of paper PMC10849652.
Some of the results follow.

Chains of the proteins cited; added tags and fusions are not shown. Lines headed by an entry give the natural chain unless they say otherwise; changes in a name come on top.
UniProt P18859: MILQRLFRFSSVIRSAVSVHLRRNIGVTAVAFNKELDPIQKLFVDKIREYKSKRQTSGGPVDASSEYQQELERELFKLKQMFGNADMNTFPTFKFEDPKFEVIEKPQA
UniProt O95352: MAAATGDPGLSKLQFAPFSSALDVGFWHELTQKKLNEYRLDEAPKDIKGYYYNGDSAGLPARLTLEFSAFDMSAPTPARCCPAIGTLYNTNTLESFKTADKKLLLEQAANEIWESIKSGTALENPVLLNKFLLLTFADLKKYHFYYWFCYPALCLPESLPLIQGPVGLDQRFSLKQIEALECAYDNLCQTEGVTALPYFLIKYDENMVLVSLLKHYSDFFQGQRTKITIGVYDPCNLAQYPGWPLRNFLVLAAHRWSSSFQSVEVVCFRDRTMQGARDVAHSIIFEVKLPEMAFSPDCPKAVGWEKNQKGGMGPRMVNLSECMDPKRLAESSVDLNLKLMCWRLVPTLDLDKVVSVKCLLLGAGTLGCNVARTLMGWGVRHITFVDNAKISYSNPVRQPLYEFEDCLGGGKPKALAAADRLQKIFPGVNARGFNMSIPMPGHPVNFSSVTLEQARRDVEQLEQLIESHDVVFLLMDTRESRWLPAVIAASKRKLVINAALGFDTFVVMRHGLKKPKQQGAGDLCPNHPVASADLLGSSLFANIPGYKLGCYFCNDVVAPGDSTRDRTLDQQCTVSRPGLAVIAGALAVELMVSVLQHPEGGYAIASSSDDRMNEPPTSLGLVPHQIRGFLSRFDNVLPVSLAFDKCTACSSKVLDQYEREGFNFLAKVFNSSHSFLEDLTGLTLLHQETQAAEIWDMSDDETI
UniProt Q9BPX5, whole entry, looked up: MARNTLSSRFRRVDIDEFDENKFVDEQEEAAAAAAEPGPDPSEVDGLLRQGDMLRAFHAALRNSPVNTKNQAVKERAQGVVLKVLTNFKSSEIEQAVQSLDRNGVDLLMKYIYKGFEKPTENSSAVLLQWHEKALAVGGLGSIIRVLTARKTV
UniProt O75915: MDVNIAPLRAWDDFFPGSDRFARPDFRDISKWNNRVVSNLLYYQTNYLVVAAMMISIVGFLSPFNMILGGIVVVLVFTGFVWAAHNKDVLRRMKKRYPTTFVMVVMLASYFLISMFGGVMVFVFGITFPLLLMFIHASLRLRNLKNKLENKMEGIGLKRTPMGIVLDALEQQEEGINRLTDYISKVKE
UniProt O43681: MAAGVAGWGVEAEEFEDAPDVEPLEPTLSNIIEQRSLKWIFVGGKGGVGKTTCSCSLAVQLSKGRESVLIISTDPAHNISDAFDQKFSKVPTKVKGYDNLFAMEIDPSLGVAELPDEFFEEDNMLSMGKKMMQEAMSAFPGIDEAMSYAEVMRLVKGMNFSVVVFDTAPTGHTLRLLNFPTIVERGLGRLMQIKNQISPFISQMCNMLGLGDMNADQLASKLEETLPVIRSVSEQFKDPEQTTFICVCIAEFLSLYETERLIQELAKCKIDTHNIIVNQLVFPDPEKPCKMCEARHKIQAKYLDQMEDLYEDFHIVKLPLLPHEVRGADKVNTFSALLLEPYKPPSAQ
UniProt Q9H1Y0: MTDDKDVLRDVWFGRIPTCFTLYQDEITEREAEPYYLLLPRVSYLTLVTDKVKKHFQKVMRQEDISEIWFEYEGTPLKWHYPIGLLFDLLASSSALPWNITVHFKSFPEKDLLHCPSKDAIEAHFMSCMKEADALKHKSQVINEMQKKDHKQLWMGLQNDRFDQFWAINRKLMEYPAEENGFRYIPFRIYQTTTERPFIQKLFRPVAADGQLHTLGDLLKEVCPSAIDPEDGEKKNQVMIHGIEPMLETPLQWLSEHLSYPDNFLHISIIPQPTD
UniProt Q9BSB4: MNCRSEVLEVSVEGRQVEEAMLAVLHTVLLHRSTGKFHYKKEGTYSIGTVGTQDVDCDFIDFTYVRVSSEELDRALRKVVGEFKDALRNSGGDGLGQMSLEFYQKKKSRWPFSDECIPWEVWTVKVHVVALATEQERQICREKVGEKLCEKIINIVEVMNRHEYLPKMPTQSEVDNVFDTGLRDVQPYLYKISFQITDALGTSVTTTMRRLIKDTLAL
UniProt P27540, whole entry, looked up: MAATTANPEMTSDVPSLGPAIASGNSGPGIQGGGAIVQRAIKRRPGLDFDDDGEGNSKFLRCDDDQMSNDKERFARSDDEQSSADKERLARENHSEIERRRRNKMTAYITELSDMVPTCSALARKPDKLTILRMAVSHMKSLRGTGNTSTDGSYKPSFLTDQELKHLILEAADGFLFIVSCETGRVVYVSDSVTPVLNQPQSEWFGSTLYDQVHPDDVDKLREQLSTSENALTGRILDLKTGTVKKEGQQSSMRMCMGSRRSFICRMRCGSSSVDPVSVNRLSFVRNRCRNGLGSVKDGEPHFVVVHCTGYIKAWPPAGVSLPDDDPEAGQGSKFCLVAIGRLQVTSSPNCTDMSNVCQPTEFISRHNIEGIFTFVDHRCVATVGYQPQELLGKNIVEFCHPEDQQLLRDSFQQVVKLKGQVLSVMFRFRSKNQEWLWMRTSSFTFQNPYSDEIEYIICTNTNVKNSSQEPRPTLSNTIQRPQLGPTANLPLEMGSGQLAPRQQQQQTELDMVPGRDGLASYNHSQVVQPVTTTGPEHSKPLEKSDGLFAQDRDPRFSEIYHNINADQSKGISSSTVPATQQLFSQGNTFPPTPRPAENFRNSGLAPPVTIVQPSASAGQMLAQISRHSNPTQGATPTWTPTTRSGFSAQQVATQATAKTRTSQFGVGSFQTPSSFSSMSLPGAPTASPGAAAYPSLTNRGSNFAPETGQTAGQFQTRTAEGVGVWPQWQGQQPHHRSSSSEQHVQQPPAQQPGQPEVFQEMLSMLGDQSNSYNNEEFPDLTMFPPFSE
UniProt Q8NBU5: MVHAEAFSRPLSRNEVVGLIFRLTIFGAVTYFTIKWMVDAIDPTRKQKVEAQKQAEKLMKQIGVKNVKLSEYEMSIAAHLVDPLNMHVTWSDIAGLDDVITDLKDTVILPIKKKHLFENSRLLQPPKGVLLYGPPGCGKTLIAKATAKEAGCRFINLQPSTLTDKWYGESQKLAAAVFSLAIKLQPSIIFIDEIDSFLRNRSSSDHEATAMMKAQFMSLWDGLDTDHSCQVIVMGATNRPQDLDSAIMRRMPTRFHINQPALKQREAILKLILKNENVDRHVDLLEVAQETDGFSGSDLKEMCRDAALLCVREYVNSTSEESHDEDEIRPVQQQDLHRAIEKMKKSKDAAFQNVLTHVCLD
UniProt Q9UH62: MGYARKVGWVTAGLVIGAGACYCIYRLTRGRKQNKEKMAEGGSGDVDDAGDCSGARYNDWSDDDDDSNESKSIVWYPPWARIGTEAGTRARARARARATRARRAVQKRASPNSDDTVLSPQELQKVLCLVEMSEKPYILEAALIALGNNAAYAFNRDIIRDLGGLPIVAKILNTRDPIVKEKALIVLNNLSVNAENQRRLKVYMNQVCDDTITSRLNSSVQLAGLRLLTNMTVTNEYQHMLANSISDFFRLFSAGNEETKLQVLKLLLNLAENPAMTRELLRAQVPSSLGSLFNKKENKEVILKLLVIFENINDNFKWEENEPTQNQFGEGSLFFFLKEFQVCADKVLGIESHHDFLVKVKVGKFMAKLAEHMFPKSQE
UniProt P08243: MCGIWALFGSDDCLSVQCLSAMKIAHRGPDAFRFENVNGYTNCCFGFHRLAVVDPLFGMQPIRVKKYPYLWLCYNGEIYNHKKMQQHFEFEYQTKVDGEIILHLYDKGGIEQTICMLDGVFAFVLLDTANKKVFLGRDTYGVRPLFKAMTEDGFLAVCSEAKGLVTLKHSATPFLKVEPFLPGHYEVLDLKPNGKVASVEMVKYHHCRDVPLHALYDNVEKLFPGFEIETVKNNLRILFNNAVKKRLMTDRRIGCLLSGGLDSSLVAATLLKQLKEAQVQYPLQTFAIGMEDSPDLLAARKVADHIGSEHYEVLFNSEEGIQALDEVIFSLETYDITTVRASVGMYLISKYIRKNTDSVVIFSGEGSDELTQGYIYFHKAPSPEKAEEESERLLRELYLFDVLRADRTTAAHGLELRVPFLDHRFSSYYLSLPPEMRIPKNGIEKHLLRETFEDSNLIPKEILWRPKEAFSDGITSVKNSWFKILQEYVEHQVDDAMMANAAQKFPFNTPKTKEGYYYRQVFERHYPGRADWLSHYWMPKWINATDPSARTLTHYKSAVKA
UniProt P21283, whole entry, looked up: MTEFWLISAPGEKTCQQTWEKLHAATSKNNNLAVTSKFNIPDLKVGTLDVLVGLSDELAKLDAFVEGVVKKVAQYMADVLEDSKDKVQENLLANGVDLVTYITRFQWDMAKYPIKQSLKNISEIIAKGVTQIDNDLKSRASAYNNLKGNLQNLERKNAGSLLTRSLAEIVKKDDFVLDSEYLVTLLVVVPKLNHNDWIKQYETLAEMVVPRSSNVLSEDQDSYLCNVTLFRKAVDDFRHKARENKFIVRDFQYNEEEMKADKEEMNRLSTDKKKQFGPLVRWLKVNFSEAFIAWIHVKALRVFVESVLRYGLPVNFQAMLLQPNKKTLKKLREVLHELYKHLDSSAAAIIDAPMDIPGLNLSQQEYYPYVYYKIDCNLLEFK
UniProt Q9Y2Y0: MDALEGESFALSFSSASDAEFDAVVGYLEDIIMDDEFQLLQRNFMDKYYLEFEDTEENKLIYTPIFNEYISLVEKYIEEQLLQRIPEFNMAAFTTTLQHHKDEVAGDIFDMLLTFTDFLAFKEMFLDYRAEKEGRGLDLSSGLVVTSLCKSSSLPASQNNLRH
UniProt Q9Y487, whole entry, looked up: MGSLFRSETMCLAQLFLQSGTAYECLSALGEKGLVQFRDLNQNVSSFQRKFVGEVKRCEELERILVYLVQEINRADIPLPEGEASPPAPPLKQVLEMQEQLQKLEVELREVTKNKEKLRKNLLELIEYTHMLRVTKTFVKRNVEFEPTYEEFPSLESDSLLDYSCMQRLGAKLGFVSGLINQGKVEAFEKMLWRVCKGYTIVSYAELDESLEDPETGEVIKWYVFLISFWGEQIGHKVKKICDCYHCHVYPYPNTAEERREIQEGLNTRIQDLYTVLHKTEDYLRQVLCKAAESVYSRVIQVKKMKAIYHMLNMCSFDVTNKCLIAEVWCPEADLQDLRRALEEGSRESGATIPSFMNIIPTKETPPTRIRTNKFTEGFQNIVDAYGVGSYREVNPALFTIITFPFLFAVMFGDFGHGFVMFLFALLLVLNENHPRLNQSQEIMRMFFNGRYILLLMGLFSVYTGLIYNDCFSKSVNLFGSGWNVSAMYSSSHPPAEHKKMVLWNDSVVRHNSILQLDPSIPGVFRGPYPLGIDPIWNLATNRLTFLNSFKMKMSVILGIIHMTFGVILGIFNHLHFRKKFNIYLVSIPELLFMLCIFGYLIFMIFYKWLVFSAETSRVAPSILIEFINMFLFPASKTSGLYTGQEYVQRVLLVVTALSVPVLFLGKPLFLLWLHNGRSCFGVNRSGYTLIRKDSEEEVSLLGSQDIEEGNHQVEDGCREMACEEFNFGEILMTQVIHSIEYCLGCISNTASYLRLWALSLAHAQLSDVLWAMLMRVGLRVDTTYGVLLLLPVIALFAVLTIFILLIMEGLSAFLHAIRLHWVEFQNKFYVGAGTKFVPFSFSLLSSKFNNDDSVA
UniProt Q9UBL3, whole entry, looked up: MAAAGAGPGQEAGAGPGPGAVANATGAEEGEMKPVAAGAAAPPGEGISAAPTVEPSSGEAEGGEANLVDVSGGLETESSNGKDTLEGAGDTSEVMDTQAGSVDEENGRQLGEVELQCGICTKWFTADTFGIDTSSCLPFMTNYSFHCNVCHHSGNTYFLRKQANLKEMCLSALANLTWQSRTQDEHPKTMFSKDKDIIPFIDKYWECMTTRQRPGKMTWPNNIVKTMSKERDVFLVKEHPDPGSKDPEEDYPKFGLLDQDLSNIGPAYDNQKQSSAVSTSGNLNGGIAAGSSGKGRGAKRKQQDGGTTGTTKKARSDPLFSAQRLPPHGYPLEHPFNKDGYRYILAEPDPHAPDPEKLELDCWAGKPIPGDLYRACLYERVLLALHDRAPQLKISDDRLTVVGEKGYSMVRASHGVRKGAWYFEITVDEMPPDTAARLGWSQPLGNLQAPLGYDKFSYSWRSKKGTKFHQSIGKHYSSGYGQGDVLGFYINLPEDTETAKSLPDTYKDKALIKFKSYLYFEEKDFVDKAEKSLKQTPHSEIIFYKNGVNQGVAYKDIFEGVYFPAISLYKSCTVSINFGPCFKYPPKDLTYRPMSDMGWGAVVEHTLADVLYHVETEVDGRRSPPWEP
UniProt Q15904, whole entry, looked up: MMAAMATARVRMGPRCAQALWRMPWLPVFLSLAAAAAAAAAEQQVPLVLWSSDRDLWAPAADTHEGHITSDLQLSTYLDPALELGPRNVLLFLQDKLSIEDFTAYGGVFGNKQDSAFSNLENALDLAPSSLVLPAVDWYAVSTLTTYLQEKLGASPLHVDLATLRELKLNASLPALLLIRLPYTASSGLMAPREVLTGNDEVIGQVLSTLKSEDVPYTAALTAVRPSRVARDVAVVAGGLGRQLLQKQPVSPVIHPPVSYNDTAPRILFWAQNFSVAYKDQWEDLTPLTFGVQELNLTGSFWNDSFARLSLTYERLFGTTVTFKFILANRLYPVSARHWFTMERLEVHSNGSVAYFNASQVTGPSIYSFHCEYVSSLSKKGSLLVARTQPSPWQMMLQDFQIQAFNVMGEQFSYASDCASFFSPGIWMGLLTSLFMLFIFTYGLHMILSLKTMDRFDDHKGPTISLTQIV

Experiments:
Assay in all cases: log2 fold change, soluble protein after heating vs DMSO (PISA); higher = thermal stabilisation; K562 cells, 10 uM, 30 min; active = over 0.2 and 3.5 SD of the protein, either way, in both replicates (recomputed)
[1] = compound: CC1=C(C=C(C=C1)NC(=O)C2=CC(=CC=C2)C(C)(C)C#N)NC3=CC4=C(C=C3)N=CN(C4=O)C
Method in brief: (§1)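 K562 cells at 2×10^6 cells/mL were given 10 μM compound for 30 min. Aliquots then went through 3 min of heating across 48°C-58°C, were pooled, and were extracted in PBS with 0.5% NP-40 at 4°C, and the supernatant after 21,000xg for 90 min was quantified by TMTpro 16plex LC-MS/MS with channel sums equalised. Thermal stability relative to control samples, from duplicates, is given as log2 fold change.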

[2] = compound: CC1=C(C=C(C=C1)NC(=O)C2=CC(=CC=C2)N(C)C)NC(=O)C3=CC=C(C=C3)O
Method in brief: as §1

[3] = compound: CC1=CC=C(C=C1)SC2=C3C=C(SC3=CN=C2)C(=O)N
Method in brief: as §1

[4] = compound: CC1=NC(=CC=C1)C2=C(N=C(N2)C(C)(C)C)C3=CC4=NC=CN=C4C=C3
Method in brief: as §1

Nexturastat A = compound: CCCCN(Cc1ccc(C(=O)NO)cc1)C(=O)Nc1ccccc1 [Nexturastat A]
Method in brief: as §1

vemurafenib = compound: CCCS(=O)(=O)Nc1ccc(F)c(C(=O)c2c[nH]c3ncc(-c4ccc(Cl)cc4)cc23)c1F [vemurafenib]
Method in brief: as §1

[5] = compound: CCCS(=O)(=O)Nc1ccc(F)c(C(=O)c2c[nH]c3ncc(Cl)cc23)c1F
Method in brief: as §1

[6] = compound: CCCc1cc(C)[nH]c(=O)c1CNC(=O)c1cc(-c2ccnc(N3CCN(C)CC3)c2)cc2c1cnn2C(C)C
Method in brief: as §1

givinostat = compound: CCN(CC)Cc1ccc2cc(COC(=O)Nc3ccc(C(=O)NO)cc3)ccc2c1 [givinostat]
Method in brief: as §1

barasertib = compound: CCN(CCCOc1ccc2c(Nc3cc(CC(=O)Nc4cccc(F)c4)[nH]n3)ncnc2c1)CCOP(=O)(O)O [barasertib]
Method in brief: as §1

[7] = compound: CC[C@@H]1C(=O)N(C)c2cnc(Nc3ccc(C(=O)NC4CCN(C)CC4)cc3OC)nc2N1C1CCCC1
Method in brief: as §1

volasertib = compound: CC[C@@H]1C(=O)N(C)c2cnc(Nc3ccc(C(=O)N[C@H]4CC[C@H](N5CCN(CC6CC6)CC5)CC4)cc3OC)nc2N1C(C)C [volasertib]
Method in brief: as §1

[8] = compound: CC[C@H](C)N1C=C(C2=C(C=C(C=C21)C3=CN=C(C=C3)N4CCNCC4)C(=O)NCC5=C(C=C(NC5=O)C)C)C
Method in brief: as §1

epoxomicin = compound: CC[C@H](C)[C@@H](C(=O)N[C@@H]([C@@H](C)O)C(=O)N[C@@H](CC(C)C)C(=O)[C@]1(CO1)C)NC(=O)[C@H]([C@@H](C)CC)N(C)C(=O)C [epoxomicin]
Method in brief: as §1

[9] = compound: CCn1c(C(=O)N(C2CC2)C2CC2)cc2c3c(ncn3C)c(Nc3cc(C)n(C)n3)nc21
Method in brief: as §1

[10] = compound: CCn1cc(-c2ccnc3[nH]c(-c4cccc(CN(C)C)c4)cc23)c(-c2ccc(NC(=O)N(C)C)cc2)n1
Method in brief: as §1

[11] = compound: CN(C)CC(=O)Nc1ccc2[nH]c(=O)c3ccccc3c2c1
Method in brief: as §1

rosiglitazone = compound: CN(CCOC1=CC=C(C=C1)C[C@H]2C(=O)NC(=O)S2)C3=CC=CC=N3 (racemic) [rosiglitazone]
Method in brief: as §1

[12] = compound: CN1C2=C(C3=C1C(=O)N(N=C3)CC4=CC(=CC=C4)N)SC(=C2)S(=O)C
Method in brief: as §1

[13] = compound: CN1CCC(CNc2ccc3ncc(-c4cccc(OC(F)(F)F)c4)n3n2)CC1
Method in brief: as §1

Target | log2 fold change [1] | log2 fold change [2] | log2 fold change [3] | log2 fold change [4] | log2 fold change (Nexturastat A) | log2 fold change (vemurafenib) | log2 fold change [5] | log2 fold change [6] | log2 fold change (givinostat) | log2 fold change (barasertib) | log2 fold change [7] | log2 fold change (volasertib) | log2 fold change [8] | log2 fold change (epoxomicin) | log2 fold change [9] | log2 fold change [10] | log2 fold change [11] | log2 fold change (rosiglitazone) | log2 fold change [12] | log2 fold change [13]
ATP5PF isoform 2 (UniProt P18859) | inactive: 0.003 | inactive: -0.149 | inactive: 0.041 | inactive: 0.107 | inactive: 0.045 | inactive: 0.108 | inactive: -0.054 | inactive: 0.134 | inactive: -0.029 | inactive: 0 | inactive: 0.038 | inactive: -0.004 | inactive: -0.033 | inactive: 0.307 | inactive: 0.106 | inactive: 0.049 | inactive: -0.079 | inactive: 0.053 | inactive: -0.033 | inactive: 0.31
ATG7 (UniProt O95352) | inactive: 0 | inactive: -0.027 | inactive: 0.006 | inactive: 0.023 | inactive: -0.05 | inactive: 0.021 | inactive: 0.048 | inactive: -0.016 | inactive: -0.017 | inactive: 0.033 | inactive: 0.006 | inactive: -0.073 | inactive: 0.031 | inactive: 0.004 | inactive: -0.026 | inactive: -0.023 | inactive: 0.076 | inactive: 0.024 | inactive: -0.04 | inactive: 0.023
ARPC5L (UniProt Q9BPX5) | inactive: -0.055 | inactive: -0.013 | inactive: -0.022 | inactive: 0 | inactive: 0.04 | inactive: 0.067 | inactive: 0.004 | inactive: -0.01 | inactive: -0.008 | inactive: 0.048 | inactive: 0.016 | inactive: -0.008 | inactive: -0.052 | inactive: 0.028 | inactive: 0.025 | inactive: -0.008 | inactive: -0.007 | inactive: -0.033 | inactive: -0.06 | inactive: 0.039
ARL6IP5 (UniProt O75915) | inactive: -0.033 | inactive: 0.064 | inactive: 0.001 | inactive: 0.025 | inactive: -0.065 | inactive: -0.017 | inactive: -0.029 | inactive: -0.028 | inactive: -0.028 | inactive: -0.001 | inactive: 0.105 | inactive: -0.007 | inactive: -0.123 | inactive: -0.002 | inactive: 0.049 | inactive: -0.001 | inactive: -0.02 | inactive: 0.005 | inactive: -0.104 | inactive: 0.001
ASNA1 (UniProt O43681) | inactive: 0.011 | inactive: 0.026 | inactive: -0.016 | inactive: 0.065 | inactive: -0.192 | inactive: 0.017 | inactive: 0.039 | inactive: -0.096 | inactive: -0.05 | inactive: -0.028 | inactive: 0.01 | inactive: 0.098 | inactive: -0.026 | inactive: -0.011 | inactive: 0.06 | inactive: 0.038 | inactive: -0.013 | inactive: -0.017 | inactive: -0.038 | inactive: -0.007
ATG5 (UniProt Q9H1Y0) | inactive: 0.003 | inactive: -0.025 | inactive: 0.021 | inactive: 0.101 | inactive: -0.043 | inactive: 0.03 | inactive: 0.048 | inactive: 0.035 | inactive: 0.069 | inactive: -0.036 | inactive: -0.082 | inactive: -0.068 | inactive: 0.064 | inactive: 0.121 | inactive: 0.037 | inactive: -0.037 | inactive: -0.034 | inactive: 0.007 | inactive: -0.013 | inactive: -0.009
ATG101 (UniProt Q9BSB4) | inactive: 0.02 | inactive: 0.006 | inactive: 0.009 | inactive: 0.034 | inactive: 0.074 | inactive: 0.02 | inactive: -0.074 | inactive: -0.042 | inactive: 0.028 | inactive: 0.02 | inactive: -0.009 | inactive: -0.018 | inactive: 0.001 | inactive: 0.043 | inactive: -0.055 | inactive: 0.112 | inactive: -0.009 | inactive: -0.024 | inactive: -0.062 | inactive: -0.039
ARNT (UniProt P27540) | inactive: -0.021 | inactive: 0.03 | inactive: 0.085 | inactive: 0.026 | inactive: 0.085 | inactive: -0.044 | inactive: 0.031 | inactive: -0.067 | inactive: 0.024 | inactive: 0.082 | inactive: -0.1 | inactive: -0.119 | inactive: 0.063 | inactive: 0 | inactive: 0 | inactive: 0.086 | inactive: 0.089 | inactive: -0.121 | inactive: 0.066 | inactive: -0.096
ATAD1 (UniProt Q8NBU5) | inactive: 0.019 | inactive: -0.034 | inactive: 0.012 | inactive: -0.012 | inactive: -0.305 | inactive: 0.076 | inactive: 0.022 | inactive: 0.045 | inactive: 0.046 | inactive: 0.055 | inactive: -0.008 | inactive: -0.127 | inactive: 0.056 | inactive: 0.065 |  | inactive: -0.027 | inactive: 0.064 |  | inactive: -0.033 | inactive: -0.046
ARMCX3 (UniProt Q9UH62) | inactive: -0.071 | inactive: -0.161 | inactive: -0.049 | inactive: -0.032 | inactive: 0.014 | inactive: -0.171 | inactive: 0.101 | inactive: -0.061 | inactive: 0.015 | inactive: -0.119 | inactive: 0 | inactive: -0.251 | inactive: 0.118 | inactive: -0.026 | inactive: -0.054 | inactive: -0.205 | inactive: 0.16 | inactive: 0 | inactive: 0.05 | inactive: -0.015
ASNS (UniProt P08243) | inactive: 0.008 | inactive: 0.007 | inactive: 0.026 | inactive: 0.025 | inactive: -0.045 | inactive: 0.007 | inactive: 0.013 | inactive: 0 | inactive: -0.004 | inactive: -0.004 | inactive: -0.01 | inactive: 0.015 | inactive: 0.008 | inactive: 0.021 |  | inactive: -0.051 | inactive: -0.008 |  | inactive: -0.064 | inactive: -0.037
ATP6V1C1 (UniProt P21283) | inactive: 0.004 | inactive: -0.037 | inactive: -0.024 | inactive: -0.033 | inactive: 0.131 | inactive: -0.018 | inactive: 0.057 | inactive: 0.026 | inactive: 0.031 | inactive: 0.062 | inactive: 0.027 | inactive: -0.196 | inactive: 0.066 | inactive: 0.064 |  | active: -0.282 | inactive: -0.008 |  | inactive: 0.069 | active: 0.377
ARL2BP (UniProt Q9Y2Y0) | inactive: 0.154 | inactive: -0.033 | inactive: 0.012 | inactive: 0.281 | inactive: 0.043 | inactive: -0.031 | inactive: 0.071 | inactive: 0.102 | inactive: -0.041 | inactive: 0.079 | inactive: -0.222 | active: -0.682 | inactive: 0.023 | inactive: -0.008 |  | inactive: -0.048 | inactive: 0.032 |  | inactive: -0.062 | inactive: -0.183
ATP6V0A2 (UniProt Q9Y487) | inactive: 0.021 | inactive: 0.016 | inactive: 0.006 | inactive: -0.013 | inactive: 0.024 | inactive: 0.026 | inactive: 0.014 | inactive: 0.014 | inactive: 0.02 | inactive: 0.008 | inactive: -0.039 | inactive: -0.039 | inactive: 0.067 | inactive: 0.043 |  | inactive: 0.028 | inactive: -0.034 |  | inactive: 0.006 | inactive: -0.169
ATP6V0A1 isoform 3 (UniProt Q93050) | inactive: 0.038 | inactive: -0.034 | inactive: -0.006 | inactive: -0.051 | inactive: 0.198 | inactive: 0.017 | inactive: 0 | inactive: 0.032 | inactive: 0.031 | inactive: 0.006 | inactive: -0.056 | inactive: 0.174 | inactive: -0.01 | inactive: 0.044 |  | inactive: -0.054 | inactive: -0.009 |  | inactive: 0.239 | inactive: -0.137
ASH2L (UniProt Q9UBL3) | inactive: 0.018 | inactive: -0.047 | inactive: 0.003 | inactive: 0.01 | inactive: -0.003 | inactive: 0.057 | inactive: 0.071 | inactive: -0.022 | inactive: 0.031 | inactive: 0.007 | inactive: -0.117 | active: -0.327 | inactive: 0.079 | inactive: 0.041 |  | inactive: -0.012 | inactive: -0.003 |  | inactive: 0.001 | inactive: -0.012
ATP6AP1 (UniProt Q15904) | inactive: 0.009 | inactive: -0.025 | inactive: 0.004 | inactive: -0.027 | inactive: 0.114 | inactive: -0.003 | inactive: -0.018 | inactive: -0.009 | inactive: 0.038 | inactive: 0.016 | inactive: -0.05 | inactive: -0.02 | inactive: 0.033 | inactive: 0.09 |  | inactive: 0.037 | inactive: -0.074 |  | inactive: 0.098 | inactive: 0.016

Some of the entries so far, with tabs:
Target	log2 fold change [1]	log2 fold change [2]	log2 fold change [3]	log2 fold change [4]	log2 fold change (Nexturastat A)	log2 fold change (vemurafenib)	log2 fold change [5]	log2 fold change [6]	log2 fold change (givinostat)	log2 fold change (barasertib)	log2 fold change [7]	log2 fold change (volasertib)	log2 fold change [8]	log2 fold change (epoxomicin)	log2 fold change [9]	log2 fold change [10]	log2 fold change [11]	log2 fold change (rosiglitazone)	log2 fold change [12]	log2 fold change [13]
ARL2BP (UniProt Q9Y2Y0)	inactive: 0.154	inactive: -0.033	inactive: 0.012	inactive: 0.281	inactive: 0.043	inactive: -0.031	inactive: 0.071	inactive: 0.102	inactive: -0.041	inactive: 0.079	inactive: -0.222	active: -0.682	inactive: 0.023	inactive: -0.008		inactive: -0.048	inactive: 0.032		inactive: -0.062	inactive: -0.183
ATP6V0A2 (UniProt Q9Y487)	inactive: 0.021	inactive: 0.016	inactive: 0.006	inactive: -0.013	inactive: 0.024	inactive: 0.026	inactive: 0.014	inactive: 0.014	inactive: 0.02	inactive: 0.008	inactive: -0.039	inactive: -0.039	inactive: 0.067	inactive: 0.043		inactive: 0.028	inactive: -0.034		inactive: 0.006	inactive: -0.169
ATP6V0A1 isoform 3 (UniProt Q93050)	inactive: 0.038	inactive: -0.034	inactive: -0.006	inactive: -0.051	inactive: 0.198	inactive: 0.017	inactive: 0	inactive: 0.032	inactive: 0.031	inactive: 0.006	inactive: -0.056	inactive: 0.174	inactive: -0.01	inactive: 0.044		inactive: -0.054	inactive: -0.009		inactive: 0.239	inactive: -0.137
